No constants are given. Whether binding was seen depends on the method and setting. In cells and extracts the contact can be indirect. Binding calls can cover weak binding; strength is not graded here. Where a sequence is shown, tags or fusion partners need not be part of it.
Target: T1, GST-RalA (UniProt P11233)
T1 sequence: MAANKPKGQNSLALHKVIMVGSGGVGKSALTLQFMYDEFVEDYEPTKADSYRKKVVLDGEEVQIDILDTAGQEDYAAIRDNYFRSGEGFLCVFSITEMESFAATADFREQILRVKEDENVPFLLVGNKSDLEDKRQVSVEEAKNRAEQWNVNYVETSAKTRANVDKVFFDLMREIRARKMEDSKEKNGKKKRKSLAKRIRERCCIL
Test: pull-down; 10 μg GST-RalA on GSH beads, loaded with 200 μM GTPγS or 1 mM GDP (or no nucleotide), incubated with HEK293A lysates at 4 °C for 2 hours; Western blot with anti-GFP and anti-Sec8; only the target purified

Chains of the proteins cited; added tags and fusions are not shown. Lines headed by an entry give the natural chain unless they say otherwise; changes in a name come on top.
UniProt Q61333: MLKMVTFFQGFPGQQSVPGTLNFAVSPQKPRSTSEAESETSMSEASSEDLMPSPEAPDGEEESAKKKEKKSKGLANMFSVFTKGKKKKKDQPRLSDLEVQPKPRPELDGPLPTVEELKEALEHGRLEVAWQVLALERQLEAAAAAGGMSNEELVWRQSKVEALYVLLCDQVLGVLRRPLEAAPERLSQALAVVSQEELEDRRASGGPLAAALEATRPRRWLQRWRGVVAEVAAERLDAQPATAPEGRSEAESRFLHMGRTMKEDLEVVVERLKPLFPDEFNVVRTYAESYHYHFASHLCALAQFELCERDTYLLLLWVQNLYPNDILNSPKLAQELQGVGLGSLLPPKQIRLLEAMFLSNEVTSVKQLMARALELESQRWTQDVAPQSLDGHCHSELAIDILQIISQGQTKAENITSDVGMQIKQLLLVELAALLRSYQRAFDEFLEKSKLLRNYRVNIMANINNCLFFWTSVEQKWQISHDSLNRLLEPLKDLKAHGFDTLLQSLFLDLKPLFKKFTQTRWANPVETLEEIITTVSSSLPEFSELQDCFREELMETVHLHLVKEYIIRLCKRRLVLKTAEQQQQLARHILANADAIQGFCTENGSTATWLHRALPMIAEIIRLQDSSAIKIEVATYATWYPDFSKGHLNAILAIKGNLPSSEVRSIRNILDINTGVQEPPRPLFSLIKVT

Substance | binding
GFP-M-Sec K470A/K474A (from UniProt Q61333) | no binding
GFP-M-Sec K531A/R532A/R533A/K537A (from UniProt Q61333) | no binding
GFP-M-Sec (wild type, residues 1-650) (from UniProt Q61333) | binds
